{"source": "PubChem BioAssay AID1159578 (Peter MacCallum Cancer Centre, 2015)", "purpose": "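Genome-wide hunt for genes controlling movement of lymphatic endothelial cells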 (primary screen)", "cell system": "human lymphatic endothelial cells", "reagents": "siRNA pool against human genes, 40 nM", "timing": "48 h after transfection", "detection": "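Cells stained with dye and imaged after a scratch; covered wound area and nuclei counted, duplicates averaged, migration set against mock wells and turned into a robust z-score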", "scale": "migration robust z-score: higher = faster migration into the scratch; nuclei per well: higher = more cells in the well", "rule for the call": "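Migration changed when robust z exceeds 2 or falls below -2 and mean nuclei number is at least 3300; otherwise not called changed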", "meaning of the calls": "active = migration changed; inactive = no migration change, or too few cells", "note": "In all, the deposit lists about 18,000 reagents; this is a part drawn at random. In the full data, about 1,030 (5.7%) got an active call. 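Inactive calls also include pools with fewer than 3300 nuclei, whose migration was not assessed.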 Raw values vary from plate to plate and are shown uncorrected. Entries without a mark were called inactive. Further read-outs or replicates are left out here. Reagent sequences are not shown."}
{"gene symbol": "PLPPR2 (phospholipid phosphatase related 2)", "migration robust z-score": "-2.52 (active)", "migration class with cell-count check": "migration z below -2; enough cells", "nuclei per well, duplicate mean": 5060}
{"gene symbol": "KIF2C (kinesin family member 2C)", "migration robust z-score": 0.64, "migration class with cell-count check": "migration z between -2 and 2; enough cells", "nuclei per well, duplicate mean": 6533}
{"gene symbol": "WSB1 (WD repeat and SOCS box containing 1)", "migration robust z-score": 0.98, "migration class with cell-count check": "migration z between -2 and 2; enough cells", "nuclei per well, duplicate mean": 6120}
{"gene symbol": "DLL1 (delta like canonical Notch ligand 1)", "migration robust z-score": -0.8, "migration class with cell-count check": "under 3300 nuclei; migration not judged", "nuclei per well, duplicate mean": 2964}
{"gene symbol": "MIPEP (mitochondrial intermediate peptidase)", "migration robust z-score": 1.14, "migration class with cell-count check": "migration z between -2 and 2; enough cells", "nuclei per well, duplicate mean": 5737}
{"gene symbol": "CCNE2 (cyclin E2)", "migration robust z-score": 0.18, "migration class with cell-count check": "migration z between -2 and 2; enough cells", "nuclei per well, duplicate mean": 6590}
{"gene symbol": "OR10AD1 (olfactory receptor family 10 subfamily AD member 1)", "migration robust z-score": -0.64, "migration class with cell-count check": "migration z between -2 and 2; enough cells", "nuclei per well, duplicate mean": 5404}
{"gene symbol": "SYT13 (synaptotagmin 13)", "migration robust z-score": 0.64, "migration class with cell-count check": "migration z between -2 and 2; enough cells", "nuclei per well, duplicate mean": 4798}
{"gene symbol": "SNRPN (small nuclear ribonucleoprotein polypeptide N)", "migration robust z-score": 0.08, "migration class with cell-count check": "migration z between -2 and 2; enough cells", "nuclei per well, duplicate mean": 5396}

Part of the list above, set out differently:
gene symbol	migration robust z-score	migration class with cell-count check	nuclei per well, duplicate mean
KIF2C (kinesin family member 2C)	0.64	migration z between -2 and 2; enough cells	6533
WSB1 (WD repeat and SOCS box containing 1)	0.98	migration z between -2 and 2; enough cells	6120

Additional reagents:
{"gene symbol": "BCAP29 (B cell receptor associated protein 29)", "migration robust z-score": -1.06, "migration class with cell-count check": "migration z between -2 and 2; enough cells", "nuclei per well, duplicate mean": 5158}
{"gene symbol": "LGALS12 (galectin 12)", "migration robust z-score": 1.76, "migration class with cell-count check": "migration z between -2 and 2; enough cells", "nuclei per well, duplicate mean": 5436}
{"gene symbol": "KRI1 (KRI1 homolog)", "migration robust z-score": 1.83, "migration class with cell-count check": "migration z between -2 and 2; enough cells", "nuclei per well, duplicate mean": 5486}
{"gene symbol": "EZH2 (enhancer of zeste 2 polycomb repressive complex 2 subunit)", "migration robust z-score": -0.28, "migration class with cell-count check": "migration z between -2 and 2; enough cells", "nuclei per well, duplicate mean": 4384}
{"gene symbol": "PTX3 (pentraxin 3)", "migration robust z-score": 0.62, "migration class with cell-count check": "migration z between -2 and 2; enough cells", "nuclei per well, duplicate mean": 5776}
